The target of the assay is Fab1. The experiment in a line: KinExA, solution phase: cyno TSLP titrated into fixed Fab1 (1000 pM filled diamonds, 40 pM open squares); free Fab1 captured on hu TSLP-coated beads. (Kinetic exclusion samples the free partner from a solution-phase mixture.)

Amino acid sequences for entries named in this document (tags omitted). A change or cut given only in a name is not applied to a line headed by its entry. Chains listed by the source or under a name are the forms on record and can include a tag or linker.
cyno TSLP (A0A7N9CAT7, form named): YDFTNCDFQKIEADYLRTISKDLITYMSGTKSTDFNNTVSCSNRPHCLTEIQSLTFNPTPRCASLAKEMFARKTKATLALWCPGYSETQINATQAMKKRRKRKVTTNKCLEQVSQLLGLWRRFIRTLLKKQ

No constants are given. Whether binding was seen depends on the method and setting. Some results given as binding are weak or reduced against the parent protein; the word gives no strength.

In the case of “cyno TSLP (from UniProt A0A7N9CAT7 29-159) (ligand)”, the binding entry is “binds”.

The values above are taken from patent publication US20210121406A1.
